For the assay, the target named is NEUROD1 (human (endogenous in H446 and H524)) (UniProt Q13562). As to the kind of experiment: co-IP.

Sequences of proteins named here, by UniProt entry; tags and fusion partners are left off.
UniProt Q13562: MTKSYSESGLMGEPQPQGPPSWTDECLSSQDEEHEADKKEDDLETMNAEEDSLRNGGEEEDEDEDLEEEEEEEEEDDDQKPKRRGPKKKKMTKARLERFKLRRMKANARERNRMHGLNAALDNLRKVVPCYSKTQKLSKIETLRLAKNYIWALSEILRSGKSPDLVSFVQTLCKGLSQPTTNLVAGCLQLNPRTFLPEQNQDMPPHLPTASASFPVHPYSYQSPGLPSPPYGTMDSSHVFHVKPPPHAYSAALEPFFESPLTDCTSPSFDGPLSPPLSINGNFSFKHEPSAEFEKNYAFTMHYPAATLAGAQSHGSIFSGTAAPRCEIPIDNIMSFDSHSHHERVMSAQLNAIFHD
UniProt P25440: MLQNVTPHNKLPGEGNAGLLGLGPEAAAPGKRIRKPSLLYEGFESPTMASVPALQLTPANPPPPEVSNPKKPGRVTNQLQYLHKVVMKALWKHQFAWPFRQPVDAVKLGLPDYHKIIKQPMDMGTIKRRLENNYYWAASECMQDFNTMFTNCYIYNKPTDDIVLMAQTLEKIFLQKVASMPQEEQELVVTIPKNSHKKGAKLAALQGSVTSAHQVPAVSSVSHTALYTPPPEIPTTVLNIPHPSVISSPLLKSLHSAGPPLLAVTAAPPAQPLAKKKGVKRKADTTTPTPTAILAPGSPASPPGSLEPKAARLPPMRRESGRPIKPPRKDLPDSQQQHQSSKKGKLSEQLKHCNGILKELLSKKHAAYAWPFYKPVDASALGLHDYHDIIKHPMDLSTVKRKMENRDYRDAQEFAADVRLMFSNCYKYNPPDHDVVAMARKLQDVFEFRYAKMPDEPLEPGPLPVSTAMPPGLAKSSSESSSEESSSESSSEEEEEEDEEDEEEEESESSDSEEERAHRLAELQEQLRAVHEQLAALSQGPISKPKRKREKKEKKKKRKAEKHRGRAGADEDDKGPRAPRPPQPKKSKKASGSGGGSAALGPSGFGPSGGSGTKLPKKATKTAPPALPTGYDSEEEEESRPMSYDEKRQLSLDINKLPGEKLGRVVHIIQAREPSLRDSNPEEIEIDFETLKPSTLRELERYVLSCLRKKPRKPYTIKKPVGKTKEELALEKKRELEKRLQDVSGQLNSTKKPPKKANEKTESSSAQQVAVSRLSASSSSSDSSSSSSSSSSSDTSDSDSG

Results are given in words; binding and its absence hold for the method and conditions named. Binding seen in cells or lysates may run through a third protein. Some results given as binding are weak or reduced against the parent protein; the word gives no strength.

Turning to BRD2 (from UniProt P25440 1-801), the binding result is recorded as “binds”.

Source of the values: doi:10.1101/2021.10.25.465771.
